Data source: PubChem BioAssay AID686943 (Drosophila RNAi Screening Center, 2013)
In all, the deposit lists about 23,000 reagents; this is an unselected part of those with a known target gene and a result. 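Extra replicates exist only for a retested subset of genes; insulin dose and duration not given; both raised and lowered dpERK matter.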 Not stated in the record: the amount of reagent, the time to read-out.

- Purpose: 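Fly genes whose loss alters ERK activation after insulin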 (primary screen)
- Cell system: Drosophila S2R+ haemocyte-like cells expressing YFP-tagged ERK (Rolled)
- Reagents: long dsRNA against Drosophila genes
- Treatment: insulin stimulation versus unstimulated cells; dose and duration not given
- Measurement: 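Per-plate z-scores of phospho-ERK immunostaining normalised to YFP-tagged ERK, measured with and without insulin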
- Reading the numbers: replicate 1, z-score of dpERK with insulin and replicate 2, z-score of dpERK with insulin: higher = more active ERK per ERK-YFP after insulin; replicate 1, z-score of dpERK under basal conditions: higher = more basal active ERK per ERK-YFP; replicate 1, z-score of ERK-YFP with insulin: higher = more YFP-tagged ERK signal

no.	Target gene	amplicon	replicate 1, z-score of dpERK with insulin	replicate 2, z-score of dpERK with insulin	replicate 1, z-score of dpERK under basal conditions	replicate 1, z-score of ERK-YFP with insulin
1	CG17287	DRSC06659	-0.72	-0.07	0.34	0.06
2	CG15554	DRSC15092	0.62	0.02	0.28	0.44
3	Ir7f	DRSC18012	0.46	0	1.11	0.23
4	gbb	DRSC04687	0.14	0.86	0.87	-0.31
5	CG42366	DRSC02760	-0.32	0.64	0.82	-0.14
6	CG13579	DRSC04215	0.14	1.38	0.8	0.61
7	Vps28	DRSC06168	-0.25	-1.12	1.33	0.26
8	dpr14	DRSC17767	1.01	0.53	-0.23	0.33
9	ohgt	DRSC15521	-0.71	-0.16	-1.32	1.89
10	psd	DRSC03131	0.26	0.91	-0.05	0.51
11	RpL13	DRSC03416	-0.26	-3.25	-0.61	-6.37

3 consecutive records from above:
no.	Target gene	amplicon	replicate 1, z-score of dpERK with insulin	replicate 2, z-score of dpERK with insulin	replicate 1, z-score of dpERK under basal conditions	replicate 1, z-score of ERK-YFP with insulin
5	CG42366	DRSC02760	-0.32	0.64	0.82	-0.14
6	CG13579	DRSC04215	0.14	1.38	0.8	0.61
7	Vps28	DRSC06168	-0.25	-1.12	1.33	0.26

More entries follow.
no.	Target gene	amplicon	replicate 1, z-score of dpERK with insulin	replicate 2, z-score of dpERK with insulin	replicate 1, z-score of dpERK under basal conditions	replicate 1, z-score of ERK-YFP with insulin
12	fru	DRSC16951	-1.18	-2.54	-1.31	-1.58
13	fru	DRSC16952	-6.49	0.62	-0.37	-0.37
14	fru	DRSC16953	1.08	-1.03	-0.25	-0.45
15	fru	DRSC21600	-6.05	-3.17	-0.8	-0.03
16	Atg5	DRSC18112	0.22	0.22	-0.24	-0.02
17	jdp	DRSC16975	-0.11	0.25	-0.19	0.41
18	hh	DRSC16965	2.38	0.02	0.1	-0.3
19	CG10887	DRSC14277	-0.12	-0.49	0.49	-0.12
20	CG33958	DRSC06472	-0.09	-0.03	0.03	0.28
21	CG33958	DRSC06944	0.04	0.86	-0.75	0.2
22	CG2246	DRSC15433	-0.15	-0.99	-0.18	0.69
23	AhcyL1	DRSC08647	0.29	-0.06	0.33	-0.19
